In PMC8016909:
These are yes or no findings as the source states them, for the method shown. In cells and extracts the contact can be indirect. A yes stands for co-enrichment or nearness to the bait. Other partners may have been found.

The chains behind the UniProt entries cited, without tags or fusion partners.
UniProt O60674: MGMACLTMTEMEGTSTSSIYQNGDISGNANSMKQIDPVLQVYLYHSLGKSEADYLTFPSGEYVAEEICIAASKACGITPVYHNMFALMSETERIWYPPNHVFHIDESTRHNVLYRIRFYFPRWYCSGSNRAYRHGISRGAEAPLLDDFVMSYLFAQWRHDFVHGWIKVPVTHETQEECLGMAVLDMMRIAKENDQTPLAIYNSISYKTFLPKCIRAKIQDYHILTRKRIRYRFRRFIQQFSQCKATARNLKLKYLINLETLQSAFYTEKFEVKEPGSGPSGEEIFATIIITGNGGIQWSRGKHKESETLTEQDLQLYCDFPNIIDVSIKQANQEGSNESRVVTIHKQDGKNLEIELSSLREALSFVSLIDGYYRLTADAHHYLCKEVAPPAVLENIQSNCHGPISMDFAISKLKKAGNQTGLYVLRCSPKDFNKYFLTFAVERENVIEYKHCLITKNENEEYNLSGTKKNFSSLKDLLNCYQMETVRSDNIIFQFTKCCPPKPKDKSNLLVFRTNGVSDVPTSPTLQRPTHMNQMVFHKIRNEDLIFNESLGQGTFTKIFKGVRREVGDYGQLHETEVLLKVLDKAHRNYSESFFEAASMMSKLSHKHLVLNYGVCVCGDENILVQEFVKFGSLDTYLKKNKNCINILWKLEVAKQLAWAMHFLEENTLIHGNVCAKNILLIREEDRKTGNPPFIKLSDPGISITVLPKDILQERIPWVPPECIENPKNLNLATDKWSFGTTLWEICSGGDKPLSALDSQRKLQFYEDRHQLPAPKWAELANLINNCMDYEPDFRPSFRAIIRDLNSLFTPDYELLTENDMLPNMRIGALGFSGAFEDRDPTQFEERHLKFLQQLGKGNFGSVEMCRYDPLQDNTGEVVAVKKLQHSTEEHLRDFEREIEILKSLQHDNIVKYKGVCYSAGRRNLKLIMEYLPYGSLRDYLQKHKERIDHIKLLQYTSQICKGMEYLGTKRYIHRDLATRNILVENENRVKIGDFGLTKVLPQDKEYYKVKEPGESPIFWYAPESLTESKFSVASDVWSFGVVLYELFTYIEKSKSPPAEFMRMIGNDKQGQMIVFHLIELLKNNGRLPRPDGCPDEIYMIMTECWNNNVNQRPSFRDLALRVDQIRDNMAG
UniProt P42224: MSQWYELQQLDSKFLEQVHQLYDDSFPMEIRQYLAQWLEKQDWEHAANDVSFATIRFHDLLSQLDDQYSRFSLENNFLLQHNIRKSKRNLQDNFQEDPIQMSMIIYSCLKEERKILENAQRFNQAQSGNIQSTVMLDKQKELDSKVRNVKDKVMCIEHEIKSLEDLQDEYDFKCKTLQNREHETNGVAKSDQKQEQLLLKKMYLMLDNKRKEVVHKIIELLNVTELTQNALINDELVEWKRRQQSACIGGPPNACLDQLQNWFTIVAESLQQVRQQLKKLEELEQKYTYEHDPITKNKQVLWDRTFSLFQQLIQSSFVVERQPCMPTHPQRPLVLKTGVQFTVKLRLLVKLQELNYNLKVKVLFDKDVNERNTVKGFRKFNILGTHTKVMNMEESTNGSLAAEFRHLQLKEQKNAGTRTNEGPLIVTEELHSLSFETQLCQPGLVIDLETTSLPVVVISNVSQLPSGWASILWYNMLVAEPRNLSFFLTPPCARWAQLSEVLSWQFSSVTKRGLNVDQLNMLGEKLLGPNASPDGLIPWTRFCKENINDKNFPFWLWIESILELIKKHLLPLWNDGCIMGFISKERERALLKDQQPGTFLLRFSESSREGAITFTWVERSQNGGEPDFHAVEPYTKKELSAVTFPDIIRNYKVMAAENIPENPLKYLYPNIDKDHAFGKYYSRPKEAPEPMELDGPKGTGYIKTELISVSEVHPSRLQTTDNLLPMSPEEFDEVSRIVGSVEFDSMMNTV
UniProt P42229: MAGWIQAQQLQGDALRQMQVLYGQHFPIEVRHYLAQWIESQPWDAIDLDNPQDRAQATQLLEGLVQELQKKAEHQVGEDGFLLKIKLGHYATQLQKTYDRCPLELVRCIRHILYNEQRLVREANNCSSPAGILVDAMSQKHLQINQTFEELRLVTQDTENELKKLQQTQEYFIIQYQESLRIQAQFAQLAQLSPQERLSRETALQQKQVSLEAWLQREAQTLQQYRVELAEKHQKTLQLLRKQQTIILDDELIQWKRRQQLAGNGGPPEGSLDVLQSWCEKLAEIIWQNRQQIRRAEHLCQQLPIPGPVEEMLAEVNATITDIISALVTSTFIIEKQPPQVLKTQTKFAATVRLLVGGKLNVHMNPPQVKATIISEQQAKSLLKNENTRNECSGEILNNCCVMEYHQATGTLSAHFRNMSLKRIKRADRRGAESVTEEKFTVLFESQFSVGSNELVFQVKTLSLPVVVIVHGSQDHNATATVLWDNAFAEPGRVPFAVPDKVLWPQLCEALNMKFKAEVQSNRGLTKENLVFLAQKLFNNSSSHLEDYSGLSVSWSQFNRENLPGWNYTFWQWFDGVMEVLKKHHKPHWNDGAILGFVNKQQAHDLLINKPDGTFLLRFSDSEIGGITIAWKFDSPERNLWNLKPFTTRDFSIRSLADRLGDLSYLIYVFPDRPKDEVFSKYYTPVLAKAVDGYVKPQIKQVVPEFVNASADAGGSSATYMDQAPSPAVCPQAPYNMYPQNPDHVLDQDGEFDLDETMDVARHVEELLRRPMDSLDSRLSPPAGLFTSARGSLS

Biological target: His-tagged JAK2 (His-hJAK2) expressed in HEK293T cells (human) (UniProt O60674)
Assay: affinity purification with mass spectrometry; His-tagged JAK2 immunoprecipitated from HEK293T cells, compared with cells expressing empty vector; gel slices, trypsin, Mascot search against human UniProt

| Substance | binding |
| --- | --- |
| STAT1 (from UniProt P42224 1-750) | binds |
| STAT5A (from UniProt P42229 1-794) | binds |
